Measured values reported in PubChem BioAssay AID540256 (National Center for Advancing Translational Sciences (NCATS), 2011).
The campaign covered roughly 300,000 compounds. About 3,700 (1.2%) were called active. The shares of active, inactive and inconclusive entries below differ from those in the screen. Calls come from the whole dose curve; tested in HEK293 cells. Potencies beside an inconclusive call are fits to weak or partial responses and may not hold up.

Test: qHTS for Inhibitors of binding or entry into cells for Lassa Virus; note: nearly all actives have a fitted effect of over 50% in size
Settings: Lassa virus pseudotype entry inhibition, cell reporter; activity change, negative = inhibition: at 37.9 µM (top of the series) unless noted
% is set by controls: 0 for no effect and ±100 for the full control effect; potency is the fitted concentration of half-maximal effect.

SMILES	Potency	activity change, negative = inhibition
COc1ccc(-c2nc(SCc3ccccc3)n(C(=O)c3ccco3)n2)cc1	inconclusive: 7.3 µM [inhibitor, partial curve, poor fit]	
C=CC1(O)C(OC)=CC2C(=O)C1C(c1ccccc1)C2C (stereo not drawn)	inconclusive: 0.841 µM [inhibitor, partial curve, poor fit]	
COc1ccccc1C1(CCNS(=O)(=O)c2ccc(C)cc2)CCOC(C(C)C)C1 (stereo not drawn)	inconclusive: 32.6 µM [inhibitor, single point]	
CC(C)c1ccc(NC(=O)C2CCC(CNC(=O)[C@@H]3Cc4ccccc4CN3)CC2)cc1 (stereo partly drawn)		inactive: 5.3% [at 46.1 µM]
CC(C)NC(=S)NN(c1ccccc1)c1ccccc1	inconclusive: 5.8 µM [activator, full curve]	
Cc1ccc(C(C)(C)C)c(SCC(=O)Nc2nnc(C)s2)c1	active: 7.08 µM	
CN(C)c1ccc(S(=O)(=O)NCC(=O)OCC(=O)Nc2cccc(Cl)c2)cc1[N+](=O)[O-]	inconclusive: 6.31 µM [inhibitor, single point]	
COc1ccc(C)cc1NC(=O)C(=O)N1CCCC1		inactive: -3.16%
CN(CCc1cnn(C)c1)C(=O)CCc1nnc(CCCc2ccccc2)o1		inactive: 7.68%
CC(C)CC1C(=O)N(Cc2cn(Cc3ccco3)nn2)CCS(=O)(=O)N1Cc1ccc(-c2ccc(Cl)cc2)cc1 (stereo not drawn)	inconclusive: 0.705 µM [inhibitor, full curve, poor fit]	
O=C(O)CCC(=O)Nc1ccc(N2CCCCCC2)cc1	inconclusive: 7.94 µM [inhibitor, partial curve, poor fit]	
Cc1ccc(N(C)C(=O)CCS(=O)(=O)c2ccc3c(c2)oc(=O)n3C)cc1		inactive: -29.1% [at 46.1 µM]
Cc1cccc(C)c1NC(=O)Cn1c(=O)n(Cc2ccc(C(=O)NCc3ccco3)cc2)c(=O)c2sccc21	inconclusive: 28.2 µM [inhibitor, single point]	
CCOC(=O)Cc1cc(C(=O)Nc2ccc(Br)cc2)sc1-c1ccc(C)cc1	inconclusive: 3.16 µM [inhibitor, full curve]	
CC1=NN(c2ccccc2)C(=O)C1C(=O)c1ccc([N+](=O)[O-])cc1 (stereo not drawn)	inconclusive: 2.91 µM [inhibitor, single point]	
CNC(=S)N/N=C/C1=CCC2CC1C2(C)C (stereo not drawn)	active: 1.3 µM	
O=C(COC(=O)C1(c2ccccc2F)CCCC1)NCc1ccc2c(c1)OCO2	inconclusive: 5.01 µM [inhibitor, partial curve, poor fit]	
O=C(Nc1ccc2c(c1)OCCO2)c1ccncc1	inconclusive: 0.164 µM [activator, full curve, poor fit]	
CCc1ccc(CNc2ncc(-c3cccc(OC)c3)n2C)cc1	inconclusive: 25.1 µM [inhibitor, single point]	
Cc1ccccc1C(=O)c1c[nH]c(C(=O)NCCCn2ccnc2)c1		inactive: 0.43%
S=C(NCCc1ccccc1)Nc1ccc(Nc2ccccc2)cc1	inconclusive: 10 µM [inhibitor, partial curve, poor fit]	
CC(C)c1ccc(N2C(=O)NC(=O)/C(=C\C=C\c3ccco3)C2=O)cc1	inconclusive: 17.8 µM [inhibitor, single point]	
c1ccc(-c2cc(-c3nnc4sc(-c5ccccn5)nn34)[nH]n2)cc1	inconclusive: 6.31 µM [inhibitor, partial curve, poor fit]	

SMILES	Potency	activity change, negative = inhibition
Cc1cc(F)ccc1S(=O)(=O)N1CCCOC1CNC(=O)C(=O)NCCN1CCOCC1 (stereo not drawn)	inconclusive: 3.98 µM [activator, single point]	
CCCn1c(=O)c2ccccc2n2c(SCc3nc4ccccc4s3)nnc12		inactive: 16.4%
CN(C)c1ccc(NC(=O)CSc2nnc(-c3cccs3)n2Cc2ccco2)cc1	inconclusive: 3.66 µM [inhibitor, full curve, poor fit]	
O=C(N/N=C/c1cc2c(cc1Cl)OCO2)c1ccccn1	inconclusive: 6.51 µM [activator, single point]	
O=C(Nc1ccc(-c2nc3ccccc3s2)cc1)c1cc(-n2cnnc2)ccc1Cl	inconclusive: 29.1 µM [inhibitor, single point]	
CCC(C)Sc1nnc(CSc2nc(C)cc(C)n2)n1C (stereo not drawn)		inactive: -1.4%
CCOCCCn1c(=N)c(C(=O)NC(C)c2ccccc2)cc2c(=O)n3cc(C)ccc3nc21 (stereo not drawn)		inactive: -2.37% [at 46.1 µM]
Cc1ccc(NP(=O)(Oc2ccccc2)Oc2ccccc2)cc1	inconclusive: 35.5 µM [activator, single point]	
Cc1ccc(C(=O)NC(=S)NNC(=O)CCN2CCOCC2)cc1	inconclusive: 7.94 µM [inhibitor, partial curve, poor fit]	
CC(C)c1ccc(NC(=O)NCc2cccnc2)cc1		inactive: 17.6%
CCCCn1c(N)c(N(CC(C)C)C(=O)c2ccc(F)c(S(=O)(=O)N3CCOCC3)c2)c(=O)[nH]c1=O		inactive: 13.7%
COCCn1ccc2c(OCC(=O)NCc3ccccc3)cccc2c1=O	active: 1.58 µM	
CCc1nnc(SCc2nc(-c3ccccc3Cl)oc2C)c2cc3sc(C)cc3n12	inconclusive: 2.82 µM [activator, full curve]	
Cc1onc(NC(=O)c2ccc([N+](=O)[O-])o2)c1Br	inconclusive: 10 µM [inhibitor, partial curve, poor fit]	
CCCSc1ncc(Cl)c(C(=O)Nc2ccc(S(=O)(=O)N3CCCC(C)C3)cc2)n1 (stereo not drawn)		inactive: -27.5% [at 46.1 µM]
CCn1c(SCc2nc3ccccc3c(=O)[nH]2)nc2ccccc2c1=O	inconclusive: 35.5 µM [inhibitor, single point]	
C=CCn1c(-c2ccc([N+](=O)[O-])cc2)n[nH]c1=S	inconclusive: 6.51 µM [inhibitor, partial curve, poor fit]	
Cc1cccc(N2CCN(C(=O)c3ccc4nc(N5CCC(C)CC5)sc4c3)CC2)c1C	inconclusive: 12.6 µM [activator, partial curve, poor fit]	
Cc1ccc2c(Sc3ccc(Cl)cc3)c(C(=O)NCCC(C)C)[nH]c2c1		inactive: -12.5% [at 46.1 µM]
C=CCn1c(SCC(=O)N2CCN(C(=O)c3ccco3)CC2)nc2sc(CC)cc2c1=O		inactive: -19.9%
CCN(CC)S(=O)(=O)c1ccc(NC(=O)CCNC(=O)c2ccccc2)cc1	inconclusive: 3.98 µM [inhibitor, full curve, poor fit]	
O=C(NCc1ccco1)c1cccc(NS(=O)(=O)c2ccccc2F)c1	inconclusive: 35.5 µM [inhibitor, single point]	
COc1ccc(Cl)c(Cn2c(NCCCN(C)C)nc3c2c(=O)n(C)c(=O)n3C)c1	inconclusive: 10 µM [activator, partial curve, poor fit]	

Looked up one by one from the list above:
SMILES	Potency	activity change, negative = inhibition
Cc1onc(NC(=O)c2ccc([N+](=O)[O-])o2)c1Br	inconclusive: 10 µM [inhibitor, partial curve, poor fit]	
Cc1cccc(N2CCN(C(=O)c3ccc4nc(N5CCC(C)CC5)sc4c3)CC2)c1C	inconclusive: 12.6 µM [activator, partial curve, poor fit]	
CN(C)c1ccc(NC(=O)CSc2nnc(-c3cccs3)n2Cc2ccco2)cc1	inconclusive: 3.66 µM [inhibitor, full curve, poor fit]	
CCCCn1c(N)c(N(CC(C)C)C(=O)c2ccc(F)c(S(=O)(=O)N3CCOCC3)c2)c(=O)[nH]c1=O		inactive: 13.7%
Cc1ccc(NP(=O)(Oc2ccccc2)Oc2ccccc2)cc1	inconclusive: 35.5 µM [activator, single point]	

Further entries

SMILES	Potency	activity change, negative = inhibition
COc1ccc(C(=O)NCCc2nnc3ccc(SCC(=O)Nc4ccccc4)nn23)cc1		inactive: -1.1%
CCN1CCN(S(=O)(=O)c2ccc(Cl)c(C(=O)N(C)Cc3cccc(Cl)c3Cl)c2)CC1	inconclusive: 28.2 µM [inhibitor, single point]	
CC(C)CN(C(=O)COC(=O)CCc1c[nH]c2ccccc12)C1CCS(=O)(=O)C1 (stereo not drawn)	inconclusive: 3.26 µM [activator, single point]	
CC(C)N(C(=O)COC(=O)c1cccnc1Cl)c1ccccc1	inconclusive: 35.5 µM [inhibitor, single point]	
Cc1ccc(S(=O)(=O)N2CCN(C(=O)N3CCOCC3)C2c2ccc(N(C)C)cc2)cc1 (stereo not drawn)	inconclusive: 23.1 µM [inhibitor, single point]	
CCOc1ccc(CN2CCNC(=O)C2CC(=O)NC2CCOCC2)cc1 (stereo not drawn)	inconclusive: 0.316 µM [inhibitor, partial curve, poor fit]	
COc1ccccc1OCc1ccc(C(=O)N2CCN(C)CC2)o1	inconclusive: 5.62 µM [inhibitor, single point]	
Cn1cc(C(=O)c2ccc(Cl)cc2)cc1-c1nc2ccccc2n1C	inconclusive: 12.6 µM [inhibitor, partial curve, poor fit]	
Cc1ccc2c(c1)cc1c(=O)n(CC(=O)N(C)c3ccccc3)nc(C)n12	inactive	
C(=N\Nc1nc2ccccc2s1)/c1ccccn1	active: 0.891 µM	
CN(C)c1ccc(C(=S)N2CCN(c3ccc([N+](=O)[O-])cc3)CC2)cc1	inconclusive: 8.91 µM [inhibitor, partial curve, poor fit]	
Nc1cc(=O)[nH]c(=O)n1Cc1ccccc1		inactive: 0.0757%
CCCCCn1c(=O)[nH]c2cc(C(=O)NCCCN3CCCCC3CC)ccc2c1=O (stereo not drawn)		inactive: -15.5% [at 46.1 µM]
CCOc1ccc(N(CC(=O)NCCSc2ccccn2)S(=O)(=O)c2ccc(Cl)cc2)cc1	inconclusive: 5.62 µM [inhibitor, full curve, poor fit]	
CCOc1ccc(NC(=O)c2ccc3[nH]c(C)cc(=O)c3c2)cc1		inactive: -9.83% [at 46.1 µM]
CCOc1ccc(C(=O)OCCN(CC)CC)cc1		inactive: -3%
CCCOC(=O)C1=C(C)NC2=C(C(=O)C(C(=O)OC)C(C)C2)C1c1ccc(N(CC)CC)cc1 (stereo not drawn)	inconclusive: 7.94 µM [inhibitor, partial curve]	
COc1ccc2c(c1)c1c(c(=O)n(-c3ccc(C)cc3)c(=O)n1CC(=O)c1ccc(Cl)cc1)n2C		inactive: 17.1% [at 46.1 µM]
O=C(NC12CC3CC(CC(C3)C1)C2)c1cc(F)c(F)c(F)c1F		inactive: 1.48% [at 46.1 µM]
CCN(Cc1ccccc1)c1ccc(/C=N/NS(=O)(=O)c2cccc([N+](=O)[O-])c2)cc1	inconclusive: 35.5 µM [inhibitor, single point]	
O=C(O)C1CC=CCC1C(=O)Nc1ccc2c(c1)OCCO2 (stereo not drawn)		inactive: 4.51%
COc1cc(NC(=O)CS(=O)(=O)c2ccc(C)cc2)cc(OC)c1OC		inactive: 0.562%
